Measurements as given in paper PMC10687032, “Phosphorylation of USP27X by GSK3β maintains the stability and oncogenic functions of CBX2” (Cell Death & Disease, 2023).
No constants are given. Whether binding was seen depends on the method and setting. Binding seen in cells or lysates may run through a third protein. Some binding calls cover weakened binding; strength is not graded here. For some assays here: Sequences can lack the tags named with a protein.

Protein sequences, listed by entry. Tags and fused reporters are not part of them.
UniProt Q14781: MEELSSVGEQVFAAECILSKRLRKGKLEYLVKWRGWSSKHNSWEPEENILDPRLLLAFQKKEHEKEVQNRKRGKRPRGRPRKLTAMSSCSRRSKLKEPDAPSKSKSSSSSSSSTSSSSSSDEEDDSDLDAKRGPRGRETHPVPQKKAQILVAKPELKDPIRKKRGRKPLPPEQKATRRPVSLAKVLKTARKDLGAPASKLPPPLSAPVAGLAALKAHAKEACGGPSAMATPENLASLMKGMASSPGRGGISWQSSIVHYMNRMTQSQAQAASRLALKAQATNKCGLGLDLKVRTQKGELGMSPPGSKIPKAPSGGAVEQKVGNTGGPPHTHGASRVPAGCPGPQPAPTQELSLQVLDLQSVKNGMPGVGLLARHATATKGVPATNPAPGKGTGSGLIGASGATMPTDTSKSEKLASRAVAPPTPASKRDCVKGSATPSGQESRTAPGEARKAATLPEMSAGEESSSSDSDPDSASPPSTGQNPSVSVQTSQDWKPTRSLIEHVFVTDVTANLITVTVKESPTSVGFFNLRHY
UniProt P49841: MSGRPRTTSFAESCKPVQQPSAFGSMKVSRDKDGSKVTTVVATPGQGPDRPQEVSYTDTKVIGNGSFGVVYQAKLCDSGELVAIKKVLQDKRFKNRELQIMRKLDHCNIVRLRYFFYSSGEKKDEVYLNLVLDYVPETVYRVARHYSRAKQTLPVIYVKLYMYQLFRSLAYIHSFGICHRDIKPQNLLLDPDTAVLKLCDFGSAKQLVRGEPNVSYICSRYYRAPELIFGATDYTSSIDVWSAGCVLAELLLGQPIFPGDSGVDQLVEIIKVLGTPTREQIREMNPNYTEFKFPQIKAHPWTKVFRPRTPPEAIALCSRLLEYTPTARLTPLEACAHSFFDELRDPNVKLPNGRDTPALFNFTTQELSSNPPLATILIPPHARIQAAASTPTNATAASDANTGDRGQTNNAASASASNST

Tests used:
[1] = biological target: T1, HA-tagged full-length (FL) USP27X (human) (UniProt A6NNY8); experiment: proximity ligation; in situ PLA between exogenous USP27X and CBX2 in HEK-293T cells
T1 sequence: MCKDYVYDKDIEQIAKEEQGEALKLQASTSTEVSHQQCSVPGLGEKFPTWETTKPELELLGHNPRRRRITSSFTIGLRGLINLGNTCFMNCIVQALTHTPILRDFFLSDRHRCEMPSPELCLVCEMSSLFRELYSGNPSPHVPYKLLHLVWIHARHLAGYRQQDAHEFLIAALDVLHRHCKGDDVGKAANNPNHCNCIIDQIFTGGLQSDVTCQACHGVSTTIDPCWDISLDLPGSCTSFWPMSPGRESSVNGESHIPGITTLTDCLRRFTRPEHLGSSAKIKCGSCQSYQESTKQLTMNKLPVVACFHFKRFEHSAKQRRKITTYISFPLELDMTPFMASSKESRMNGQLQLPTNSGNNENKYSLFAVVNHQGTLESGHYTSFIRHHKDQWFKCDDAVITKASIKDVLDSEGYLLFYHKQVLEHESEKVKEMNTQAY

[2] = biological target: T1, HA-tagged full-length (FL) USP27X (human); experiment: co-IP; HEK-293T cells co-transfected with HA-USP27X and Myc-CBX2 (full length, deletion mutants or S135A); IP with anti-Myc or anti-HA magnetic beads, IB with HA and Myc antibodies; lysis buffer 50 mM Tris-Cl pH 7.4, 150 mM NaCl, 1% Triton X-100, 1 mM DTT; in Fig. 5I with Flag-GSK3β co-transfected, IP anti-Myc, IB anti-HA
[3] = biological target: T2, endogenous USP27X (human (endogenous in MCF7, MDA-MB-231, BT-549)) (UniProt A6NNY8); experiment: co-IP; endogenous proteins in lysates of MCF7, MDA-MB-231 and BT-549; IP with antibodies against USP27X, CBX2 or GSK3β, IgG as isotype control; lysis buffer 50 mM Tris-Cl pH 7.4, 150 mM NaCl, 1% Triton X-100, 1 mM DTT; in Fig. 5F-H after GSK3β overexpression or GSK3β siRNA for 36 h and 20 µM MG132 for 6 h
T2 sequence: T1 sequence

[4] = biological target: T2, endogenous USP27X (human (endogenous in MCF7, MDA-MB-231, BT-549)); experiment: proximity ligation; in situ PLA (Duolink, Rabbit PLUS and Mouse MINUS) between endogenous USP27X and CBX2 in fixed cells

| binding [1] | binding [2] | binding [3] | binding [4] | Substance |
| --- | --- | --- | --- | --- |
| binds | binds | – | – | Myc-tagged full-length (FL) CBX2 (from UniProt Q14781 1-532) |
| – | – | binds | binds | endogenous CBX2 (from UniProt Q14781 1-532) |
| – | – | binds | – | endogenous GSK3β (from UniProt P49841 1-420) (enzyme) |
